The values that follow come from PubChem BioAssay AID330 (DTP/NCI, 2004).

The list does not hold the whole screen: it gathers tests that were run many times, whatever their T/C, doses with no T/C, and many T/C values between a quarter and a half above the control. Other doses and runs of a compound stand elsewhere. T/C: endpoint of the treated group in % of that of the vehicle group. Some doses have a count of surviving animals in place of a T/C: the source files T/C as zero there, which appears to mark a toxic dose or a test without result, not a measured value. Some doses without a T/C left all or most animals alive at the check, yet need not have been tolerated: the source hardly ever lists a survival T/C far under the control, and the zero likely stands for such cases as well. Survivors were counted at the toxicity check, usually on the fifth day, unless a day is given; later deaths do not show. Schedules are NCI's codes, read here as Q, the interval in days (D) or hours (H), X, the number of doses. Some entries hold several experiments; the values are given in rising order. For survival time, this PubChem deposit counts one and a half times the control or more as active, and values a quarter to a half above the control carry no call in these data; other NCI protocols may use other cut-offs.

The test deals with P388 leukemia ip, CD2F1 mice, survival T/C. Put plainly: NCI In Vivo Anticancer Drug Screen. Data for tumor model P388 Leukemia (intraperitoneal) in CD2F1 (CDF1) mice. To be noted: T/C endpoint: median survival time, higher T/C = longer survival.
The mark [1] stands for this setting: dose: 240.0 mg/kg/injection, schedule: Q01DX005 (ip), vehicle: Klucel (hydroxypropylcellulose) (HPC).
[2] abbreviates: dose: 200.0 mg/kg/injection, schedule: Q01DX009 (ip), vehicle: saline with Tween-80.
Setting [3] is: dose: 400.0 mg/kg/injection, schedule: Q01DX009 (ip), vehicle: saline with Tween-80.
The mark [4] stands for this setting: dose: 50.0 mg/kg/injection, schedule: Q01DX009 (ip), vehicle: saline.
Where [5] appears, read: dose: 100.0 mg/kg/injection, schedule: Q01DX009 (ip), vehicle: saline.
The mark [6] stands for this setting: dose: 60.0 mg/kg/injection, schedule: Q01DX005 (ip), vehicle: Klucel (hydroxypropylcellulose) (HPC).
The mark [7] stands for this setting: dose: 120.0 mg/kg/injection, schedule: Q01DX005 (ip), vehicle: Klucel (hydroxypropylcellulose) (HPC).
The mark [8] stands for this setting: dose: 6.25 mg/kg/injection, schedule: Q01DX009 (ip), vehicle: saline.
[9] abbreviates: dose: 12.5 mg/kg/injection, schedule: Q01DX009 (ip), vehicle: saline.
[10] abbreviates: dose: 25.0 mg/kg/injection, schedule: Q01DX009 (ip), vehicle: saline.
Setting [11] is: dose: 50.0 mg/kg/injection, schedule: Q01DX005 (ip), vehicle: Klucel (hydroxypropylcellulose) (HPC).
Where [12] appears, read: dose: 100.0 mg/kg/injection, schedule: Q01DX005 (ip), vehicle: Klucel (hydroxypropylcellulose) (HPC).
Setting [13] is: dose: 200.0 mg/kg/injection, schedule: Q01DX005 (ip), vehicle: Klucel (hydroxypropylcellulose) (HPC).
Setting [14] is: dose: 100.0 mg/kg/injection, schedule: Q01DX005 (ip), vehicle: saline with Tween-80.
Setting [15] is: dose: 200.0 mg/kg/injection, schedule: Q01DX005 (ip), vehicle: saline with Tween-80.
Setting [16] is: dose: 400.0 mg/kg/injection, schedule: Q04DX003 (ip), vehicle: saline.

For `Cc1nc(N)[nH]c(=O)c1CCCC#N`, under setting [1], the survivor count is 2 of 6.

In the case of `CCCOC(=O)C(F)C(Br)C(=O)OCCC` (centres undefined), the T/C under setting [2] is 126 % of control. In addition, the survivor count under setting [3] was 1 of 6.

Regarding `COc1cc2c3c4c1OCc1c5c(cc(c1-4)CC3[N+](C)(C)CC2)OCO5` (centres undefined), the survivor count reads like this: (dose: 50.0 mg/kg/injection, schedule: Q01DX001 (ip), vehicle: saline) 0 of 6; (dose: 100.0 mg/kg/injection, schedule: Q01DX001 (ip), vehicle: saline) 0 of 6; (dose: 200.0 mg/kg/injection, schedule: Q01DX001 (ip), vehicle: saline) 0 of 6; (dose: 400.0 mg/kg/injection, schedule: Q01DX001 (ip), vehicle: saline) 0 of 6.

For `COC(=O)OC(C#N)c1ccccc1[N+](=O)[O-]` (centres undefined), the survivor count (dose: 12.5 mg/kg/injection, schedule: Q01DX009 (ip), vehicle: suspension in saline) was 5 of 6; the survivor count (dose: 25.0 mg/kg/injection, schedule: Q01DX009 (ip), vehicle: suspension in saline) is on record as 5 of 6; the survivor count under setting [4] is given as 4 of 6; the survivor count under setting [5] is reported as 4 of 6.

Consider `CSc1nc(COC(=O)NC(C)C)c(COC(=O)NC(C)C)n1-c1ccccc1`, for which the survivor count (dose: 50.0 mg/kg/injection, schedule: Q01DX005 (ip), vehicle: Klucel + Tween-80) is recorded as 6 of 6 and the survivor count (dose: 100.0 mg/kg/injection, schedule: Q01DX005 (ip), vehicle: Klucel + Tween-80) is 6 of 6.

As for `Cn1c(=O)c2[nH]c(Cl)nc2n(CCCl)c1=O`, the survivor count is, setting by setting: (dose: 6.25 mg/kg/injection, schedule: Q01DX009 (ip), vehicle: saline with Tween-80) 6 of 6; under setting [2], 0 of 6; under setting [3], 0 of 6.

Take `COC1=CC(=O)C(=O)C(C(C)(C)C)=C1`: the survivor count is 0 of 6 and 3 of 6 under setting [6]; 0 of 6 under setting [7]; 0 of 6 under setting [1].

Turning to `Nc1cnc2ccccn12`, the survivor count under setting [2] was 3 of 6.

As for `O=C1CSC(=O)N1c1cccc(Cl)c1`, the survivor count by setting is: (dose: 1.56 mg/kg/injection, schedule: Q01DX009 (ip), vehicle: saline) 6 of 6; (dose: 3.12 mg/kg/injection, schedule: Q01DX009 (ip), vehicle: saline) 5 of 6; under setting [8], 6 of 6; under setting [10], 6 of 6; (dose: 100.0 mg/kg/injection, schedule: Q01DX009 (ip), vehicle: saline with Tween-80) 5 of 6; under setting [2], 6 of 6. The T/C under setting [9] was 90, 94, 99, 124 % of control.

For the compound `CNC(=N)c1ccc(NC(=N)c2ccc(NC(=N)c3ccc(NC(=O)Nc4ccc(C(=N)Nc5ccc(C(=N)Nc6ccc(C(=N)NC)cc6)cc5)cc4)cc3)cc2)cc1`, under “dose: 6.0 mg/kg/injection, schedule: Q04DX003 (ip), vehicle: saline with Tween-80”, the T/C is 125 % of control.

In the case of `CC1=Nc2ccc(C(F)(F)F)cc2NC(=O)C1`, the survivor count under setting [11] was 4 of 6.

In the case of `O=C(OC1(c2nccc3ccccc23)CCNCC1)c1ccccc1`, the survivor count was 3 of 6 under setting [12] and 0 of 6 under setting [13].

For the compound `CC1OC(=Nc2ccccc2)NC1=O` (centres undefined), the survivor count (dose: 400.0 mg/kg/injection, schedule: Q01DX001 (ip), vehicle: saline with Tween-80) is reported as 5 of 6.

Regarding `CC(C)C1[NH][Sn]2([NH]C(C(C)C)C(=O)[O]2)[O]C1=O` (centres undefined), under setting [13], the survivor count is listed as 1 of 6.

Consider `N#Cc1ccc(OCCCCOc2ccc(C#N)cc2)cc1`, for which the survivor count is, setting by setting: (dose: 50.0 mg/kg/injection, schedule: Q01DX005 (ip), vehicle: saline with Tween-80) 6 of 6; under setting [14], 6 of 6; under setting [15], 6 of 6.

As for `[CH3][Sn]([CH3])([Cl])[CH2]CC[CH2][Sn]([CH3])([Cl])[Cl]`, the survivor count under setting [8] is reported as 2 of 6; the survivor count under setting [9] is 0 of 6; the survivor count under setting [10] is recorded as 0 of 6; the survivor count under setting [4] is on record as 0 of 6; the survivor count under setting [5] is given as 0 of 6; the survivor count (dose: 200.0 mg/kg/injection, schedule: Q01DX009 (ip), vehicle: saline) is on record as 0 of 6.

On to `CCNc1nc(NC(C)C)nc(-c2ccncc2)n1`, for which the survivor count under setting [13] is given as 0 of 6.

Take `O=C(/C=C/c1ccco1)C1C(=O)CCC1=O`: the survivor count (dose: 200.0 mg/kg/injection, schedule: Q01DX005 (ip), vehicle: Klucel + Tween-80) was 4 of 6.

As to `CCN(CC)CCCC(C)Nc1nc(-c2ccc(OC)cc2)nc2cc(Cl)ccc12` (centres undefined), the survivor count (dose: 200.0 mg/kg/injection, schedule: Q01DX005 (ip), vehicle: saline) is 1 of 5.

For the compound `CCc1cccc(C)c1NC(=O)/C(Cl)=C(\Cl)C(=O)O`, the survivor count (dose: 240.0 mg/kg/injection, schedule: Q01DX005 (ip), vehicle: saline with Tween-80) was 0 of 6.

For `CC1(C)NC(=O)N(CCCCCCN2C(=O)NC(C)(C)C2=O)C1=O`, under setting [13], the survivor count is 6 of 6.

As to `CC(C)(C)/C=C/N1CCN=N1`, the survivor count reads like this: under setting [14], 0 of 5; under setting [15], 0 of 5.

`COC1=C(NC(C)=O)C(=O)c2nc(-c3nc(C(=O)O)c(C)c(-c4ccc(OC)c(OC)c4O)c3N)ccc2C1=O`: the survivor count (dose: 200.0 mg/kg/injection, schedule: Q01DX009 (ip), vehicle: distilled water + Tween-80) is on record as 5 of 6.

For `CCCCCCC1N=C(N)N=C(N)N1c1ccc(Cl)cc1` (centres undefined), the survivor count is, setting by setting: under setting [11], 3 of 5; under setting [12], 4 of 5; under setting [13], 0 of 5.

Turning to `CCOC(=O)CC1CC(=O)C(C(=O)OCC)C=C1C(=O)OCC` (centres undefined), the survivor count under setting [15] is listed as 1 of 5.

Turning to `O=C1CC=C2C3CC4N(CCC45c4ccccc4N1C25)C/C3=C\CBr` (centres undefined), the survivor count is, setting by setting: (dose: 15.0 mg/kg/injection, schedule: Q01DX005 (ip), vehicle: Klucel (hydroxypropylcellulose) (HPC)) 3 of 6; (dose: 30.0 mg/kg/injection, schedule: Q01DX005 (ip), vehicle: Klucel (hydroxypropylcellulose) (HPC)) 0 of 6; under setting [6], 0 of 6; under setting [7], 0 of 6; under setting [1], 0 of 6.

In the case of `COC(/C=N/OC(=O)c1ccccc1)c1ccccc1` (centres undefined), the survivor count runs as follows: (dose: 50.0 mg/kg/injection, schedule: Q04DX003 (ip), vehicle: saline with Tween-80) 6 of 6; (dose: 100.0 mg/kg/injection, schedule: Q04DX003 (ip), vehicle: saline with Tween-80) 3 of 6 and 4 of 6; (dose: 200.0 mg/kg/injection, schedule: Q04DX003 (ip), vehicle: saline with Tween-80) 0 of 6 and 1 of 6; (dose: 400.0 mg/kg/injection, schedule: Q04DX003 (ip), vehicle: saline with Tween-80) 0 of 6 and 1 of 6.

`COC1N(C2CC(O)C(CO)O2)C(=O)NC(=O)C1(F)Br` (centres undefined): the T/C is 127 % of control (dose: 266.0 mg/kg/injection, schedule: Q04DX003 (ip), vehicle: saline) and 136 % of control under setting [16].

Turning to `OCCN1CCN(CCCOC2=Nc3ccccc3O/C2=C/c2ccccc2)CC1`, the survivor count (dose: 200.0 mg/kg/injection, schedule: Q04DX003 (ip), vehicle: saline) is 2 of 6 and the survivor count under setting [16] is reported as 0 of 6.

Consider `Cc1cc(NC(=O)C(=O)O)cc2c(=O)cc(C(=O)O)[nH]c12`, for which the survivor count (dose: 100.0 mg/kg/injection, schedule: Q01DX009 (ip), vehicle: Klucel (hydroxypropylcellulose) (HPC)) is 0 of 6 and 1 of 6; the survivor count (dose: 200.0 mg/kg/injection, schedule: Q01DX009 (ip), vehicle: Klucel (hydroxypropylcellulose) (HPC)) is reported as 0 of 6.
